Some of the results follow. These are further read-outs of the screen, such as a control signal, another cell line or another target. No call is given for them. Compounds called inactive in the main read-out are mostly missing here. The note in brackets gives the kind of curve behind each potency; many fits are weak.
Assay: Cell signaling CRE-BLA (Fsk stim)
Settings: CHO CRE-bla reporter (cAMP response element driving beta-lactamase), forskolin EC10, beta-lactamase ratio; measured here: 460 nm blue channel
Method in brief: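 Forskolin analogue NKH 477 at EC10 stimulated CRE-driven beta-lactamase in CHO cells alongside compound dilution series. Beta-lactamase was measured with CCF4, excitation 405 nm, emission ratio 460/530 nm.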

Structure (SMILES)	AC50
O=C1c2ccccc2S(=O)(=O)N1Cc1nc2ccccc2s1	0.00398 µM [falling, full curve, poor fit]
CCCCCCn1c(N(CC)CC)nc2c1c(=O)[nH]c(=O)n2C	10 µM [rising, partial curve]
CCOC(=O)CCc1c(C)c2ccc(O)cc2oc1=O	25.1 µM [rising, single point]
Cc1cc(Nc2ccc3c(c2)OCCO3)n2nc(C)nc2n1	6.31 µM [rising, partial curve]
CC(C)C[C@@H](CC(=O)N[C@H](CC(=O)N[C@@H]1CCCC[C@H]1C(=O)N[C@H](CC(=O)N[C@@H](CCC(=O)O)CC(=O)O)Cc1ccccc1)C(C)C)NC(=O)[C@@H]1CCCC[C@H]1N	7.94 µM [falling, full curve, poor fit]
CCOC(=O)c1sc(NC(=O)CSc2nnnn2-c2ccccc2)nc1C	3.98 µM [rising, partial curve, poor fit]
Cc1cc(NC(=O)c2ccc(NC(=O)c3cccs3)cc2)no1	0.631 µM [rising, full curve, poor fit]
COc1cccc(Cn2c(=O)c(-c3cc(F)cc(F)c3)nc3cnc(N4CCNCC4)nc32)c1	1 µM [rising, full curve]
c1ccc(Nc2nc(-c3ccc4c(c3)OCO4)nc3ccccc23)cc1	3.16 µM [rising, partial curve]
COc1ccc(-n2c(Cc3cccn3C)nnc2SCC(=O)Nc2ccc(F)cc2)cc1	6.31 µM [falling, partial curve]
Cc1ccc2c(c1)nnn2C1CCN(CC(=O)Nc2ccccc2N2CCOCC2)CC1	10 µM [rising, partial curve]
Cc1cccc(-n2nnnc2SCC(=O)c2cc(C)n(Cc3ccco3)c2C)c1	0.0398 µM [falling, partial curve, poor fit]
Cn1nnnc1SCc1c(F)cccc1F	5.01 µM [falling, partial curve]
O=C(OC1CCOC1=O)c1ccc2ccccc2n1 (stereo not drawn)	3.98 µM [falling, partial curve]
COc1cc(-c2nnc(SCC(=O)Nc3cc(C)on3)n2C)cc(OC)c1O	3.98 µM [falling, single point]
CCOC(=O)COc1ccc2c(c1)C(=O)CC(C)(c1cccnc1)O2 (stereo not drawn)	25.1 µM [rising, single point]
Cn1c(=O)c(-c2cc(F)cc(F)c2)nc2cnc(N3CCOCC3)nc21	2 µM [rising, partial curve]
CCOC(=O)c1cc2cc(C)ccc2[nH]1	3.98 µM [falling, full curve]
CC(C)C(=O)c1c(C(C)C)nn2ccccc12	12.6 µM [rising, partial curve]
O=C(c1coc(=O)c2ccccc12)N1CCN(Cc2ccccc2)CC1	25.1 µM [rising, single point]
CCNCCNC(=O)c1c(O)c2ccccc2n(CC)c1=O	3.16 µM [rising, single point]
Cc1occc1C(=O)Nc1cc(=O)n(C)c(=O)n1C	0.00316 µM [falling, full curve, poor fit]

As entered above:
Entry for `CCNCCNC(=O)c1c(O)c2ccccc2n(CC)c1=O` under AC50: 3.16 µM [rising, single point]
Entry for `COc1cccc(Cn2c(=O)c(-c3cc(F)cc(F)c3)nc3cnc(N4CCNCC4)nc32)c1` under AC50: 1 µM [rising, full curve]
Entry for `CCOC(=O)c1sc(NC(=O)CSc2nnnn2-c2ccccc2)nc1C` under AC50: 3.98 µM [rising, partial curve, poor fit]

Continued.

Structure (SMILES)	AC50
CN1CCc2nc(SCCOc3ccccc3)c(C#N)cc2C1	7.94 µM [rising, partial curve]
CN(C)c1ccc(C2CC(=O)NC3=C2C(=O)CC(C)(C)C3)cc1 (stereo not drawn)	1 µM [falling, full curve, poor fit]
O[C@@H]1[C@@H]2c3cc4c(cc3CN3CCC(=C[C@@H]1O)[C@H]23)OCO4	0.794 µM [rising, full curve]
Nc1c(C(=O)NCCN2CCOCC2)c2nc3ccccc3nc2n1-c1cccc(F)c1	10 µM [rising, partial curve]
CCOC(=O)CC(=O)Nc1cc(Cl)ccc1O	7.94 µM [falling, partial curve]
CC1=C(C(=O)OCC2CCCO2)C(c2ccccc2OC(C)C)C2=C(CC(c3ccco3)CC2=O)N1 (stereo not drawn)	12.6 µM [rising, single point]
O=C(CN1CCN(Cc2ccccc2Cl)C1=O)N1CCCCCC1	12.6 µM [rising, single point]
CCC(=O)c1ccc(N2CCCCCC2)c(F)c1	15.8 µM [rising, partial curve]
CCOC(=O)C1CCCN(c2ncnc3c2cnn3-c2cccc(C)c2)C1 (stereo not drawn)	20 µM [rising, single point]
Cc1nnc(SCCn2c(N3CCCCCC3)nc3c2c(=O)[nH]c(=O)n3C)s1	12.6 µM [rising, single point]
Cn1c(=O)[nH]c(=O)c2c1nc(N(CCO)Cc1ccccc1)n2CCCc1ccccc1	12.6 µM [rising, partial curve]
CC1CCc2sc3ncnc(N4CCOCC4)c3c2C1 (stereo not drawn)	25.1 µM [rising, single point]
CNc1nc(C)c(C#N)c(-c2ccccc2)c1C(C)=O	10 µM [rising, partial curve]
CN1C(=O)c2cccc3c(S(=O)(=O)Nc4ccccn4)ccc1c23	10 µM [rising, single point]
CCOC(=O)C1CCN(S(=O)(=O)c2cccc(-c3csc(C)n3)c2)CC1	25.1 µM [rising, single point]
COc1ccc(Nc2nc3ccccc3c(=O)s2)c(OC)c1	25.1 µM [rising, single point]
CC(=O)c1ccc(Oc2cc(C)nc(-n3nc(C)cc3C)n2)cc1	2.51 µM [rising, partial curve]
CCOc1cc(N2CCOCC2)c(OCC)cc1NC(=O)COc1cccc2cccnc12	3.16 µM [falling, full curve]
Cc1nc2ccccc2c2oc(C(=O)NCCN3CCN(C)CC3)cc12	15.8 µM [rising, single point]
CC(C)(C)n1ncc2c(=O)n(CC(=O)Nc3ccc4c(c3)OCCO4)cnc21	25.1 µM [rising, single point]
CCOC(=O)c1cc2oc(C(c3nnnn3C3CCCCC3)N3CCOCC3)cc2[nH]1 (stereo not drawn)	10 µM [rising, partial curve]
